Measured values: article PMC10297930
These are yes or no findings as the source states them, for the method shown. Binding seen in cells or lysates may run through a third protein. Some results given as binding are weak or reduced against the parent protein; the word gives no strength. Where a sequence is shown, tags or fusion partners need not be part of it. Each block holds one molecule with its values, some of them ahead of it.

Chains of the proteins cited; added tags and fusions are not shown.
UniProt Q15717: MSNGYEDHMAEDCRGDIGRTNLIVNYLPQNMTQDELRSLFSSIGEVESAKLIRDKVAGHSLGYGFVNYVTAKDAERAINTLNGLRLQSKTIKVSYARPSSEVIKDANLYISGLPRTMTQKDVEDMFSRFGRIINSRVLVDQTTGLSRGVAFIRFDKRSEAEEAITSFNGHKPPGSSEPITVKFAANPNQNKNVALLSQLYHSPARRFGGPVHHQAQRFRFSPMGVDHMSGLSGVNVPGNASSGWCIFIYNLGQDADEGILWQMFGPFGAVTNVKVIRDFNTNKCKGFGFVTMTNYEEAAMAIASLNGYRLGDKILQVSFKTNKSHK

Molecular target: T1, Zeb1/GFP fusion protein (UniProt P37275)
T1 sequence: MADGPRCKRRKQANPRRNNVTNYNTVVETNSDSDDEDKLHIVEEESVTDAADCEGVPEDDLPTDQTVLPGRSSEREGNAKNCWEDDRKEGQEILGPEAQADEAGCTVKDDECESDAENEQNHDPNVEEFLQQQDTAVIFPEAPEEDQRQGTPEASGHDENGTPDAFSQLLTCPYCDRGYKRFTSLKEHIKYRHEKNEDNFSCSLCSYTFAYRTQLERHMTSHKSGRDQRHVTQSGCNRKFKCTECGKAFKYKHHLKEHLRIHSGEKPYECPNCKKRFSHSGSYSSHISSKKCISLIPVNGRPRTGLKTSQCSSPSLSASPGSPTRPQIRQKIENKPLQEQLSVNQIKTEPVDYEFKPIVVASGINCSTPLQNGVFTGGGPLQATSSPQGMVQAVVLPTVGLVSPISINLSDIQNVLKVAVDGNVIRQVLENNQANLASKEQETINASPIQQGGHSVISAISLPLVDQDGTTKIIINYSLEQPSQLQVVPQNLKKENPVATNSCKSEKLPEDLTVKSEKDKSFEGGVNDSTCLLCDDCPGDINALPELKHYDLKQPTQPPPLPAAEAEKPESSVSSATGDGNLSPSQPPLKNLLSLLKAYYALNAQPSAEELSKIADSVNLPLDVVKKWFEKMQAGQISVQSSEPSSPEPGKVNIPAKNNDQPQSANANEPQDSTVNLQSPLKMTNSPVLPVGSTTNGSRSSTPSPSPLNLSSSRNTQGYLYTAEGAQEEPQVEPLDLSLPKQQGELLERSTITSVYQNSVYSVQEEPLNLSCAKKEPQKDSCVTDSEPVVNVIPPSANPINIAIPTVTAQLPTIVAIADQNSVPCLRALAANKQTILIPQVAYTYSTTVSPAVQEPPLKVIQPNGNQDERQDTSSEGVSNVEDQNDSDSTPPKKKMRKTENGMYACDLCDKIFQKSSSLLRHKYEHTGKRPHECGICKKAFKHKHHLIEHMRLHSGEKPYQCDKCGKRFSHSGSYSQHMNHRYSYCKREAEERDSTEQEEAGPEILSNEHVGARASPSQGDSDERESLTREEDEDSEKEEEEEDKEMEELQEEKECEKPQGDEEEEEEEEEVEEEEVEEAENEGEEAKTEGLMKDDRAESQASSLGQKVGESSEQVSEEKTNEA
Assay: co-IP; Zeb1/GFP immunoprecipitated from MCF7 nuclear extracts on anti-GFP llama nano-antibody magnetic beads; partners detected by Western blot; cells wt p53 or shp53, low or high SORE6-mCherry reporter

binding: binds
Molecule: ELAV-like protein 1 (ELAVL1) (from UniProt Q15717 1-326)

binding: binds
Molecule: C-terminal-binding protein 2 (CTBP2) (from UniProt P56545 1-445)

binding: binds
B1: E3 ubiquitin-protein ligase TRIM33 (TRIM33) (protein, UniProt Q9UPN9 1-1127)
chain: MAENKGGGEAESGGGGSGSAPVTAGAAGPAAQEAEPPLTAVLVEEEEEEGGRAGAEGGAAGPDDGGVAAASSGSAQAASSPAASVGTGVAGGAVSTPAPAPASAPAPGPSAGPPPGPPASLLDTCAVCQQSLQSRREAEPKLLPCLHSFCLRCLPEPERQLSVPIPGGSNGDIQQVGVIRCPVCRQECRQIDLVDNYFVKDTSEAPSSSDEKSEQVCTSCEDNASAVGFCVECGEWLCKTCIEAHQRVKFTKDHLIRKKEDVSESVGASGQRPVFCPVHKQEQLKLFCETCDRLTCRDCQLLEHKEHRYQFLEEAFQNQKGAIENLLAKLLEKKNYVHFAATQVQNRIKEVNETNKRVEQEIKVAIFTLINEINKKGKSLLQQLENVTKERQMKLLQQQNDITGLSRQVKHVMNFTNWAIASGSSTALLYSKRLITFQLRHILKARCDPVPAANGAIRFHCDPTFWAKNVVNLGNLVIESKPAPGYTPNVVVGQVPPGTNHISKTPGQINLAQLRLQHMQQQVYAQKHQQLQQMRMQQPPAPVPTTTTTTQQHPRQAAPQMLQQQPPRLISVQTMQRGNMNCGAFQAHQMRLAQNAARIPGIPRHSGPQYSMMQPHLQRQHSNPGHAGPFPVVSVHNTTINPTSPTTATMANANRGPTSPSVTAIELIPSVTNPENLPSLPDIPPIQLEDAGSSSLDNLLSRYISGSHLPPQPTSTMNPSPGPSALSPGSSGLSNSHTPVRPPSTSSTGSRGSCGSSGRTAEKTSLSFKSDQVKVKQEPGTEDEICSFSGGVKQEKTEDGRRSACMLSSPESSLTPPLSTNLHLESELDALASLENHVKIEPADMNESCKQSGLSSLVNGKSPIRSLMHRSARIGGDGNNKDDDPNEDWCAVCQNGGDLLCCEKCPKVFHLTCHVPTLLSFPSGDWICTFCRDIGKPEVEYDCDNLQHSKKGKTAQGLSPVDQRKCERLLLYLYCHELSIEFQEPVPASIPNYYKIIKKPMDLSTVKKKLQKKHSQHYQIPDDFVADVRLIFKNCERFNEMMKVVQVYADTQEINLKADSEVAQAGKAVALYFEDKLTEIYSDRTFAPLPEFEQEEDDGEVTEDSDEDFIQPRRKRLKSDERPVHIK
